For test [1], the target named is GST-tagged p62 (SQSTM1/p62, sequestosome 1) (UniProt Q13501). Kind of test: pull-down; 10 µg GST-p62 on glutathione beads incubated overnight at 4°C with lysates of HEK cells expressing HA-HDAC6; washed 3 times with NETN buffer; Western blot with anti-HA and anti-GST; only the target purified. (In general: In western blotting, separated proteins are transferred to a membrane and probed.)

By UniProt entry, the sequences of proteins in these tests, tags left out.
UniProt Q9UBN7: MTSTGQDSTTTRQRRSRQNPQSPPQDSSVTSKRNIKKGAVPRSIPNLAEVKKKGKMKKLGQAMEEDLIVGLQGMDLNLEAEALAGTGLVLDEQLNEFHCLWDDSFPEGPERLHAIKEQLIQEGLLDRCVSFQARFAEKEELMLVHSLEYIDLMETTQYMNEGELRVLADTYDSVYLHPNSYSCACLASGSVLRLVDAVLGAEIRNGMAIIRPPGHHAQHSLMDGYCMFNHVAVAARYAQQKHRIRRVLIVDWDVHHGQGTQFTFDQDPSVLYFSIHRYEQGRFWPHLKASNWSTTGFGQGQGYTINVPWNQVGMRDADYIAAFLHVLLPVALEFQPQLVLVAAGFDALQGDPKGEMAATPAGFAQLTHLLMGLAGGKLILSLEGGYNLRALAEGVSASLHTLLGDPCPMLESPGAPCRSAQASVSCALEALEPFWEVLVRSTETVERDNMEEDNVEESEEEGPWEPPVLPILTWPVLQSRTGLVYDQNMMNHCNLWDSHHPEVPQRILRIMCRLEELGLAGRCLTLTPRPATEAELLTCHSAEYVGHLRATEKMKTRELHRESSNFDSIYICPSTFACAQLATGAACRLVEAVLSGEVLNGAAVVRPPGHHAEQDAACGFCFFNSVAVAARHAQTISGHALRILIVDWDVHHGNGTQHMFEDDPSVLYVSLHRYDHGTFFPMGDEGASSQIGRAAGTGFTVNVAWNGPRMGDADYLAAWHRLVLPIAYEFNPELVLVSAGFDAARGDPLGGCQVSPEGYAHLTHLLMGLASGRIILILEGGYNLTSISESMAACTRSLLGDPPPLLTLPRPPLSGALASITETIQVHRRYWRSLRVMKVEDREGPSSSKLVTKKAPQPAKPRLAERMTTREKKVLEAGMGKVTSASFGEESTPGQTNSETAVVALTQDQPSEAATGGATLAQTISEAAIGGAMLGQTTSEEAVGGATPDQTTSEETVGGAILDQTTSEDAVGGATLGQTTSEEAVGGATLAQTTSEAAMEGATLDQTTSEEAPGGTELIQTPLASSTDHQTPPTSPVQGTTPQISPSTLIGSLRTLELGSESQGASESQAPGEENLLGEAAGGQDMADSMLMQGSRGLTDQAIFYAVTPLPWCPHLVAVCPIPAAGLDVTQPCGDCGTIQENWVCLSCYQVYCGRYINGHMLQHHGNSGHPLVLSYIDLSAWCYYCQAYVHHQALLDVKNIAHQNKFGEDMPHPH

The target in another test is full length FLAG-HDAC6 (UniProt Q9UBN7). Kind of test: co-IP; HEK cells co-transfected with FLAG-HDAC6 and tagged p62 constructs; Triton Lysis Buffer; HDAC6 immunoprecipitated with FLAG antibody; Western blot for myc- or HA-tagged p62.

These are yes or no findings as the source states them, for the method shown. In cells and extracts the contact can be indirect. Some binding calls cover weakened binding; strength is not graded here.

On to “HA-tagged HDAC6 (histone deacetylase 6) (from UniProt Q9UBN7 1-1215) (enzyme)”, for which the binding result in test [1] is listed as “binds”.
In the case of “myc-tagged full length p62 (from UniProt Q13501 1-440)”, the binding entry in the test with full length FLAG-HDAC6 was “binds”.

For the origin of these results see PMC3785417.
